This is an account of results in paper PMC6889282.

Sequences of proteins named here, by UniProt entry; tags and fusion partners are left off.
UniProt Q9Y297: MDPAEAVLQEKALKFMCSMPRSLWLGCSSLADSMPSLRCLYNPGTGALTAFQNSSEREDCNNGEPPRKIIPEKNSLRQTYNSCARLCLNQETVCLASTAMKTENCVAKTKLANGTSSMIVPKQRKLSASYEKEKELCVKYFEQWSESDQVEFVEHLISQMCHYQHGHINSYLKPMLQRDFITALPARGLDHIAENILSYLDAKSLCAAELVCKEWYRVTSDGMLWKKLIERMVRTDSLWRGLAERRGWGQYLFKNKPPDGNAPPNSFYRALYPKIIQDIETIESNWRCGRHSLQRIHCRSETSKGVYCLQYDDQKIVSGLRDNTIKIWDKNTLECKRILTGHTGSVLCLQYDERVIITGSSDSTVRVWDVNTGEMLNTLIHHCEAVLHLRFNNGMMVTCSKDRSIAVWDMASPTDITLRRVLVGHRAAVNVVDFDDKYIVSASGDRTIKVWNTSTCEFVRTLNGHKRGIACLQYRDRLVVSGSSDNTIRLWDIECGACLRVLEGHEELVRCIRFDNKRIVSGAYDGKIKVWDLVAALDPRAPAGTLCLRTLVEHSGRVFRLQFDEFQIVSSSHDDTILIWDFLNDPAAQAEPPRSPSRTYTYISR
UniProt P46937: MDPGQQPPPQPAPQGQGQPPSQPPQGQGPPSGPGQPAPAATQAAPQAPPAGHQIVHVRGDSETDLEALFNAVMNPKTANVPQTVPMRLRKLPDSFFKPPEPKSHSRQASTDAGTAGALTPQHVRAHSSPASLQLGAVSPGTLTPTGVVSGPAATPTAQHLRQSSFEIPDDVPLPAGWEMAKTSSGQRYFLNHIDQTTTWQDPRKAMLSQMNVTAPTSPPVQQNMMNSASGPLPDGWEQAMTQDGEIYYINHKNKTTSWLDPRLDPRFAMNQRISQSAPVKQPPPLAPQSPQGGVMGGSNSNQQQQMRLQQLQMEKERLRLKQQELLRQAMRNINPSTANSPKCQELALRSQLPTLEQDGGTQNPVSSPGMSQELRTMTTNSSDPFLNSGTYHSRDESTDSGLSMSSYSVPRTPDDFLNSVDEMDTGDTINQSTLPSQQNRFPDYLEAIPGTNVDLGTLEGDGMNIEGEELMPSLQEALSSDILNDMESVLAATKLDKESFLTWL

Assay [1] addresses HA-β-TrCP (beta-transducin repeats-containing protein) (UniProt Q9Y297). The experiment in a line: co-IP; SW1116 cells transfected with FLAG-YAP and HA-β-TrCP, MG132 (20 μM, 10 h); with or without ΔN-KA-EE-MEK (complete or serum-free medium), LMB or trametinib (100 nM, 24 h); IP with anti-TrCP; blots with anti-TrCP and anti-YAP.
For another assay, the target named is FLAG-YAP (UniProt P46937). The experiment in a line: co-IP; SW1116 cells transfected with HA-β-TrCP and FLAG-YAP; nuclei separated by Nuclear Extraction Kit and lysed with IP lysis buffer; IP with anti-FLAG; blots with anti-TrCP and anti-YAP.

These are yes or no findings as the source states them, for the method shown. Binding seen in cells or lysates may run through a third protein. Some entries that bind do so weakly or less than the wild type.

Take FLAG-YAP (from UniProt P46937 1-504): the binding entry in assay [1] is reported as “binds”.

As to “HA-β-TrCP (beta-transducin repeats-containing protein) (from UniProt Q9Y297 1-605)”, the binding result in the assay with FLAG-YAP was “no binding (condition: in the lysate of separated nuclei)”.
